Patent US20240382545A1, “COMPOSITION FOR PREVENTING, AMELIORATING OR TREATING RESPIRATORY DISEASE COMPRISING FERMENTED CENTELLA ASIATICA EXTRACT AS EFFECTIVE COMPONENT” (KOREA INSTITUTE OF ORIENTAL MEDICINE, priority 2021, published 2024)
At least one structure is not confirmed: it was looked up by name or label, or the drawing left a doubt.

What was measured:
Type in all cases: in vivo
[1] = tested on: BALB/c mice induced with chronic obstructive pulmonary disease (COPD); assay: Neutrophil count in BALF in the animal model of lung injury (LPS+CS-induced COPD); settings: 3 mg/kg, daily oral for 14 days
[2] = tested on: chemokines and cytokines (MIP2, IL-1α, CXCL-1, IL-17, and TNF-α); assay: ELISA of chemokines and cytokines in BALF in the animal model of lung injury; settings: LPS+CS COPD mice, daily oral for 14 days, vs control group
[3] = tested on: MUC5AC, TNF-α, CXCL-1, and MIP2; assay: Real-time PCR of respiratory inflammatory factors in lung tissue in the animal model of lung injury; settings: LPS+CS COPD mice, daily oral for 14 days, vs Control

## C[C@@H]1C[C@H]2[C@@H]3CCC4=CC(=O)C=C[C@]4(C)[C@@]3(F)[C@@H](O)C[C@]2(C)[C@@]1(O)C(=O)CO [dexamethasone]
[1]
  relative neutrophil count in BALF: decrease
[2]
  production amount of CXCL-1 in BALF: statistically significant decrease
  production amount of IL-1α in BALF: statistically significant decrease
  production amount of IL-17 in BALF: statistically significant decrease
  production amount of MIP2 in BALF: statistically significant decrease
  production amount of TNF-α in BALF: statistically significant decrease
[3]
  gene expression level of CXCL-1: decrease
  gene expression level of MIP2: decrease
  gene expression level of MUC5AC: decrease
  gene expression level of TNF-α: decrease
